# No constants are given. Whether binding was seen depends on the method and setting. Binding can be weak; no strength is given. For some of these results: Tags and fused reporters may be left off the sequences shown. For some of these results: Binding seen in cells or lysates may run through a third protein.
# What was measured:
# [1] = molecular target: GST-SUFD (Arabidopsis thaliana); assay: pull-down
# [2] = molecular target: GST-SUFB (Arabidopsis thaliana); assay: pull-down
# [3] = molecular target: GST-SUFC (Arabidopsis thaliana); assay: pull-down
# [4] = molecular target: BD-SUFC (Arabidopsis thaliana); assay: two-hybrid
# [5] = molecular target: BD-SUFB (Arabidopsis thaliana); assay: two-hybrid
# [6] = molecular target: SUFC-cEYFP (Arabidopsis thaliana); assay: split reporter
# [7] = molecular target: SUFB-cEYFP (Arabidopsis thaliana); assay: split reporter
binder,measurement,setting,value
"MBP-CLPS1 (protein, UniProt Q9SX29 45-159) AALGKGGGVLDKPIIEKTTPGRESEFDLRKSKKIAPPYRVILHNDNFNKREYVVQVLMKVIPGMTVDNAVNIMQEAHINGLAVVIVCAQADAEQHCMQLRGNGLLSSVEPDGGGC",binding,[1],binds
same,binding,[2],binds
same,binding,[3],binds
"AD-CLPS1 (protein, UniProt Q9SX29 1-159) METAICGRLALAPSSLFNSKSGDKHLVSKGPCVNRSILMTLSTSAALGKGGGVLDKPIIEKTTPGRESEFDLRKSKKIAPPYRVILHNDNFNKREYVVQVLMKVIPGMTVDNAVNIMQEAHINGLAVVIVCAQADAEQHCMQLRGNGLLSSVEPDGGGC",binding,[4],binds
same,binding,[5],binds
"CLPS1-nEYFP (protein, UniProt Q9SX29 45-159) AALGKGGGVLDKPIIEKTTPGRESEFDLRKSKKIAPPYRVILHNDNFNKREYVVQVLMKVIPGMTVDNAVNIMQEAHINGLAVVIVCAQADAEQHCMQLRGNGLLSSVEPDGGGC",binding,[6],binds
same,binding,[7],binds
